Drawing on PMC3466224, this text covers binding for two molecules.

Test [1] addresses T1, carbohydrate response element binding protein (Chrebp) (mouse (endogenous in primary hepatocytes and liver)) (UniProt Q99MZ3).
T1 sequence: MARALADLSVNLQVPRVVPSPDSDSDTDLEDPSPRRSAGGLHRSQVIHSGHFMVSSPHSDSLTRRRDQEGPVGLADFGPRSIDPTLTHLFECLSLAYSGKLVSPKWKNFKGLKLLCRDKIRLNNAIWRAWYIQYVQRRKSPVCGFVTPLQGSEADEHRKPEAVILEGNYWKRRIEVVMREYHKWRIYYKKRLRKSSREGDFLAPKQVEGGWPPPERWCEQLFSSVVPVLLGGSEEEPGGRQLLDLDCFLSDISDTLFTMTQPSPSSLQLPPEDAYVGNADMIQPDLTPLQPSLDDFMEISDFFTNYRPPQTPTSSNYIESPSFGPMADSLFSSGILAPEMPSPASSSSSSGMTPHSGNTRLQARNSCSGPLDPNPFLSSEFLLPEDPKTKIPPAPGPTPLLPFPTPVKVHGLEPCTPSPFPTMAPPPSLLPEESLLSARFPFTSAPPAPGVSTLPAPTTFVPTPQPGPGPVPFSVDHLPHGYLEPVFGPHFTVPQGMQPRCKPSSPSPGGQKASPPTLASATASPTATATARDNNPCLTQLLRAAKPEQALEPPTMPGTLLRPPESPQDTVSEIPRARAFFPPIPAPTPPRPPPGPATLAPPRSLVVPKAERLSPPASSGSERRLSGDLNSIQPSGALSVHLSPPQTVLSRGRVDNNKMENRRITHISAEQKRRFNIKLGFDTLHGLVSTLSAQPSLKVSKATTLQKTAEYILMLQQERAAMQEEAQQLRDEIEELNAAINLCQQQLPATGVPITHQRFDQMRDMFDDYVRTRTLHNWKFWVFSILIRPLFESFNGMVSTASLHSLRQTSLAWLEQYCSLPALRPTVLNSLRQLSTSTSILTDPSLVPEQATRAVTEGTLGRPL
Put plainly: co-IP; mouse primary hepatocytes transfected with HA-OGT, cultured with 5 mM or 25 mM glucose for 24 hr; lysed in RIPA buffer, diluted with Co-IP buffer (50 mM Tris, 150 mM NaCl, 0.1% NP-40, 10% glycerol, 5 mM MgCl2); immunoprecipitation with anti-Chrebp antibody, blot with anti-HA.

Test [2] addresses T1, carbohydrate response element binding protein (Chrebp) (mouse (endogenous in primary hepatocytes and liver)). Put plainly: co-IP; liver samples of L-FoxO1-KO and control mice, 24 hr fasted or 3 hr refed after 24 hr starvation; immunoprecipitation with anti-Chrebp antibody, blot with anti-OGT.

These are yes or no findings as the source states them, for the method shown. In cells and extracts the contact can be indirect. Some entries that bind do so weakly or less than the wild type. For some assays here: Tags and fused reporters may be left off the sequences shown.

B1: HA-OGT (O-GlcNAc transferase) (enzyme, UniProt O15294 1-1046)
chain: MASSVGNVADSTEPTKRMLSFQGLAELAHREYQAGDFEAAERHCMQLWRQEPDNTGVLLLLSSIHFQCRRLDRSAHFSTLAIKQNPLLAEAYSNLGNVYKERGQLQEAIEHYRHALRLKPDFIDGYINLAAALVAAGDMEGAVQAYVSALQYNPDLYCVRSDLGNLLKALGRLEEAKACYLKAIETQPNFAVAWSNLGCVFNAQGEIWLAIHHFEKAVTLDPNFLDAYINLGNVLKEARIFDRAVAAYLRALSLSPNHAVVHGNLACVYYEQGLIDLAIDTYRRAIELQPHFPDAYCNLANALKEKGSVAEAEDCYNTALRLCPTHADSLNNLANIKREQGNIEEAVRLYRKALEVFPEFAAAHSNLASVLQQQGKLQEALMHYKEAIRISPTFADAYSNMGNTLKEMQDVQGALQCYTRAIQINPAFADAHSNLASIHKDSGNIPEAIASYRTALKLKPDFPDAYCNLAHCLQIVCDWTDYDERMKKLVSIVADQLEKNRLPSVHPHHSMLYPLSHGFRKAIAERHGNLCLDKINVLHKPPYEHPKDLKLSDGRLRVGYVSSDFGNHPTSHLMQSIPGMHNPDKFEVFCYALSPDDGTNFRVKVMAEANHFIDLSQIPCNGKAADRIHQDGIHILVNMNGYTKGARNELFALRPAPIQAMWLGYPGTSGALFMDYIITDQETSPAEVAEQYSEKLAYMPHTFFIGDHANMFPHLKKKAVIDFKSNGHIYDNRIVLNGIDLKAFLDSLPDVKIVKMKCPDGGDNADSSNTALNMPVIPMNTIAEAVIEMINRGQIQITINGFSISNGLATTQINNKAATGEEVPRTIIVTTRSQYGLPEDAIVYCNFNQLYKIDPSTLQMWANILKRVPNSVLWLLRFPAVGEPNIQQYAQNMGLPQNRIIFSPVAPKEEHVRRGQLADVCLDTPLCNGHTTGMDVLWAGTPMVTMPGETLASRVAASQLTCLGCLELIAKNRQEYEDIAVKLGTDLEYLKKVRGKVWKQRISSPLFNTKQYTMELERLYLQMWEHYAAGNKPDHMIKPVEVTESA
Turning to B1, the binding result in test [1] is reported as “binds”.

B2: O-GlcNAc transferase (OGT), endogenous (enzyme, UniProt Q8CGY8 1-1046)
chain: MASSVGNVADSTEPTKRMLSFQGLAELAHREYQAGDFEAAERHCMQLWRQEPDNTGVLLLLSSIHFQCRRLDRSAHFSTLAIKQNPLLAEAYSNLGNVYKERGQLQEAIEHYRHALRLKPDFIDGYINLAAALVAAGDMEGAVQAYVSALQYNPDLYCVRSDLGNLLKALGRLEEAKACYLKAIETQPNFAVAWSNLGCVFNAQGEIWLAIHHFEKAVTLDPNFLDAYINLGNVLKEARIFDRAVAAYLRALSLSPNHAVVHGNLACVYYEQGLIDLAIDTYRRAIELQPHFPDAYCNLANALKEKGSVAEAEDCYNTALRLCPTHADSLNNLANIKREQGNIEEAVRLYRKALEVFPEFAAAHSNLASVLQQQGKLQEALMHYKEAIRISPTFADAYSNMGNTLKEMQDVQGALQCYTRAIQINPAFADAHSNLASIHKDSGNIPEAIASYRTALKLKPDFPDAYCNLAHCLQIVCDWTDYDERMKKLVSIVAEQLEKNRLPSVHPHHSMLYPLSHGFRKAIAERHGNLCLDKINVLHKPPYEHPKDLKLSDGRLRVGYVSSDFGNHPTSHLMQSIPGMHNPDKFEVFCYALSPDDGTNFRVKVMAEANHFIDLSQIPCNGKAADRIHQDGIHILVNMNGYTKGARNELFALRPAPIQAMWLGYPGTSGALFMDYIITDQETSPAEVAEQYSEKLAYMPHTFFIGDHANMFPHLKKKAVIDFKSNGHIYDNRIVLNGIDLKAFLDSLPDVKIVKMKCPDGGDNPDSSNTALNMPVIPMNTIAEAVIEMINRGQIQITINGFSISNGLATTQINNKAATGEEVPRTIIVTTRSQYGLPEDAIVYCNFNQLYKIDPSTLQMWANILKRVPNSVLWLLRFPAVGEPNIQQYAQNMGLPQNRIIFSPVAPKEEHVRRGQLADVCLDTPLCNGHTTGMDVLWAGTPMVTMPGETLASRVAASQLTCLGCLELIAKSRQEYEDIAVKLGTDLEYLKKIRGKVWKQRISSPLFNTKQYTMELERLYLQMWEHYAAGNKPDHMIKPVEVTESA
With B2, in test [2], the binding entry is “binds”.
